Record: PubChem BioAssay AID720505 (Drosophila RNAi Screening Center, 2013)
Screen: 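Fly regulators or components of the CRAC channel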 (primary screen). System: Drosophila S2R+ cells. Reagents: long dsRNA against Drosophila genes. Challenge: thapsigargin (2 µM) in calcium-free buffer to empty internal stores, then 2 mM calcium added back. Measurement: 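Stores emptied by 2 µM thapsigargin without calcium, then 2 mM calcium re-added; fluo-4 fluorescence followed by FLIPR in 384-well plates, per-well averaged endpoint, raw; two screen passes, some wells retested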. Scale: calcium signal and retest calcium signal: higher = more calcium entry after store depletion. Rule for the call: 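About 1500 genes called as lowering calcium entry, by varying amounts, judged against per-plate control wells with STIM1 as positive and Rho1 as negative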. Meaning of the calls: active = called as lowering calcium entry; inactive = not called.
The deposit covers about 20,000 reagents; shown is a random part of those that have a named target and a result. Of all reagents, about 2,100 (10%) got an active call. 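Raw plate signals without normalisation; calls rest on control-based scores that were not deposited; replicate 2 separates called from uncalled poorly.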 The numbers tell different reagents against one gene apart. Not given: the amount of reagent, the time to read-out.

predicted target | reagent no. | calcium signal, replicate 1 | calcium signal, replicate 2 | retest calcium signal, replicate 1 | retest calcium signal, replicate 2 | Call
Galk (GeneID 39031) | 1 | 168 | 117 | – | – | inactive
sage (GeneID 41105) | 1 | 113 | 141 | – | – | inactive
CG7685 (GeneID 42220) | 1 | 191 | 192 | – | – | inactive
CG18809 (GeneID 59170) | 1 | 50.6 | 92.1 | – | – | active
CG43689 (GeneID 31353) | 1 | 107 | 124 | – | – | inactive
CG43689 (GeneID 31353) | 2 | 196 | 126 | – | – | inactive
CG43689 (GeneID 31353) | 3 | 109 | 126 | – | – | inactive
CG43689 (GeneID 31353) | 4 | 99.6 | 89 | – | – | inactive
CG34354 (GeneID 5740528) | 1 | 148 | 207 | – | – | inactive
CG34354 (GeneID 5740528) | 2 | 165 | 148 | – | – | inactive
CG34354 (GeneID 5740528) | 3 | 167 | 115 | – | – | inactive
CG34354 (GeneID 5740528) | 4 | 96.2 | 137 | – | – | inactive
Mdh2 (GeneID 42185) | 1 | 196 | 168 | – | – | inactive
Raf (GeneID 31221) | 1 | 58.3 | 107 | – | – | active
Raf (GeneID 31221) | 2 | 115 | 139 | – | – | inactive
tapas (GeneID 37304) | 1 | 134 | 117 | – | – | inactive
CG3687 (GeneID 36803) | 1 | 177 | 185 | – | – | inactive
CG6333 (GeneID 39953) | 1 | 101 | 143 | – | – | inactive
lncRNA:CR32553 (GeneID 318087) | 1 | 69.9 | 100 | – | – | active
Fili (GeneID 5740472) | 1 | 79.7 | 5438 | – | – | inactive
Fili (GeneID 5740472) | 2 | 172 | 117 | – | – | inactive
Fili (GeneID 5740472) | 3 | 197 | 123 | – | – | inactive
CG4101 (GeneID 39857) | 1 | 80 | 154 | – | – | inactive
RasGAP1 (GeneID 39158) | 1 | 104 | 128 | – | – | inactive
Lint-1 (GeneID 32055) | 1 | 130 | 65.3 | – | – | inactive
CG32206 (GeneID 40105) | 1 | 8417 | 167 | – | – | inactive
CG32206 (GeneID 40105) | 2 | 81.8 | 134 | – | – | inactive
CG32206 (GeneID 40105) | 3 | 91.7 | 147 | – | – | inactive
CG32206 (GeneID 40105) | 4 | 103 | 101 | – | – | inactive
CG32206 (GeneID 40105) | 5 | 117 | 78.1 | – | – | active
CG7943 (GeneID 43574) | 1 | 104 | 188 | – | – | inactive
Cyp316a1 (GeneID 38840) | 1 | 139 | 108 | – | – | inactive
p (GeneID 41025) | 1 | 135 | 154 | – | – | inactive
CG31883 (GeneID 326169) | 1 | 119 | 120 | – | – | inactive
CG8004 (GeneID 40178) | 1 | 104 | 99.8 | – | – | inactive
CG9400 (GeneID 32385) | 1 | 128 | 61.1 | – | – | active
trh (GeneID 38065) | 1 | 127 | 74.2 | – | – | inactive
trh (GeneID 38065) | 2 | 120 | 125 | – | – | inactive
CG15890 (GeneID 32401) | 1 | 116 | 104 | – | – | inactive
pwn (GeneID 44011) | 1 | 123 | 138 | 112 | 108 | inactive

Reprinted from the listing (10 entries):
predicted target | reagent no. | calcium signal, replicate 1 | calcium signal, replicate 2 | retest calcium signal, replicate 1 | retest calcium signal, replicate 2 | Call
CG34354 (GeneID 5740528) | 1 | 148 | 207 | – | – | inactive
CG34354 (GeneID 5740528) | 2 | 165 | 148 | – | – | inactive
CG34354 (GeneID 5740528) | 3 | 167 | 115 | – | – | inactive
CG34354 (GeneID 5740528) | 4 | 96.2 | 137 | – | – | inactive
Mdh2 (GeneID 42185) | 1 | 196 | 168 | – | – | inactive
Raf (GeneID 31221) | 1 | 58.3 | 107 | – | – | active
Raf (GeneID 31221) | 2 | 115 | 139 | – | – | inactive
tapas (GeneID 37304) | 1 | 134 | 117 | – | – | inactive
CG3687 (GeneID 36803) | 1 | 177 | 185 | – | – | inactive
CG6333 (GeneID 39953) | 1 | 101 | 143 | – | – | inactive

Further results follow.
predicted target | reagent no. | calcium signal, replicate 1 | calcium signal, replicate 2 | retest calcium signal, replicate 1 | retest calcium signal, replicate 2 | Call
msl-3 (GeneID 38779) | 1 | 71.3 | 76.5 | – | – | inactive
Ugt49C1 (GeneID 37421) | 1 | 88 | 108 | – | – | inactive
Semp1 (GeneID 34914) | 1 | 80.9 | 140 | – | – | active
CG10950 (GeneID 36942) | 1 | 217 | 173 | – | – | inactive
CG2811 (GeneID 37988) | 1 | 77.5 | 112 | – | – | inactive
CG10413 (GeneID 35111) | 1 | 67.8 | 86.4 | – | – | active
AhcyL2 (GeneID 42043) | 1 | 118 | 160 | – | – | inactive
CG14183 (GeneID 40192) | 1 | 99.3 | 135 | – | – | inactive
mey (GeneID 43715) | 1 | 106 | 99.2 | – | – | inactive
lncRNA:CR32657 (GeneID 3772397) | 1 | 120 | 95.7 | – | – | inactive
CycA (GeneID 39340) | 1 | 62.1 | 62.1 | – | – | active
wda (GeneID 42750) | 1 | 239 | 109 | 7434 | 173 | inactive
wda (GeneID 42750) | 2 | 128 | 234 | – | – | inactive
dpr18 (GeneID 32572) | 1 | 76.8 | 97.2 | – | – | active
CG17681 (GeneID 35086) | 1 | 79.4 | 117 | – | – | active
SerRS (GeneID 33518) | 1 | 139 | 163 | – | – | inactive
Cdc14 (GeneID 34067) | 1 | 100 | 162 | – | – | inactive
CG7016 (GeneID 42968) | 1 | 108 | 88.1 | – | – | inactive
CG1575 (GeneID 31731) | 1 | 110 | 75.9 | – | – | inactive
ZnT33D (GeneID 326167) | 1 | 80.5 | 127 | – | – | inactive
CG7080 (GeneID 42609) | 1 | 169 | 213 | – | – | inactive
mRpS18A (GeneID 326141) | 1 | 149 | 115 | – | – | inactive
CG18130 (GeneID 32161) | 1 | 118 | 78.7 | – | – | inactive
CG14147 (GeneID 39227) | 1 | 64.7 | 85.9 | – | – | inactive
CG42271 (GeneID 2768892) | 1 | 140 | 81.1 | – | – | inactive
CG42271 (GeneID 2768892) | 2 | 112 | 213 | – | – | inactive
TAF1C-like (GeneID 37450) | 1 | 172 | 83.8 | – | – | inactive
Pgant6 (GeneID 38346) | 1 | 69.2 | 142 | – | – | active
CG10418 (GeneID 39408) | 1 | 119 | 118 | – | – | inactive
CG14014 (GeneID 33784) | 1 | 108 | 114 | – | – | inactive
CG1674 (GeneID 43780) | 1 | – | – | – | – | inactive
CG1674 (GeneID 43780) | 2 | 138 | 133 | – | – | inactive
CG33286 (GeneID 2768984) | 1 | 66.7 | 88 | – | – | active
Skadu (GeneID 8673966) | 1 | 140 | 81.6 | – | – | inactive
Lsm11 (GeneID 36013) | 1 | 123 | 153 | – | – | inactive
CG1394 (GeneID 32059) | 1 | 74.9 | 86.7 | – | – | active
PGRP-SA (GeneID 32099) | 1 | 69 | 93.3 | – | – | inactive
pncr003:2L (retired record) (GeneID 3772689) | 1 | 102 | 170 | – | – | inactive
CG7156 (GeneID 42187) | 1 | 151 | 194 | – | – | inactive
Cpr49Ad (GeneID 36349) | 1 | 101 | 169 | – | – | inactive
CG5577 (GeneID 39985) | 1 | 106 | 83.4 | – | – | inactive
Ald2 (GeneID 43189) | 1 | 269 | 139 | – | – | inactive
Ald2 (GeneID 43189) | 2 | 293 | 145 | – | – | inactive
Vha16-3 (GeneID 317846) | 1 | 103 | 128 | – | – | inactive
gammaCOP (GeneID 43717) | 1 | 61.4 | 76.7 | – | – | active
CG4681 (GeneID 37928) | 1 | 137 | 180 | – | – | inactive
CG12911 (GeneID 36081) | 1 | 139 | 101 | – | – | inactive
CG12795 (GeneID 33561) | 1 | 158 | 85.6 | – | – | inactive
CG46301 (GeneID 34829) | 1 | 59.2 | 59.7 | 84.9 | 133 | active
CG16741 (GeneID 59232) | 1 | 151 | 92.7 | – | – | inactive
Mdr50 (GeneID 36582) | 1 | 116 | 168 | – | – | inactive
Cph (GeneID 31660) | 1 | 274 | 154 | – | – | inactive
prom (GeneID 246493) | 1 | 155 | 155 | – | – | inactive
prom (GeneID 246493) | 2 | 120 | 88.3 | – | – | inactive
prom (GeneID 246493) | 3 | 76.9 | 203 | – | – | inactive
SdhA (GeneID 37228) | 1 | 190 | 101 | – | – | inactive
Mst89B (GeneID 41972) | 1 | 125 | 188 | – | – | inactive
CG2698 (GeneID 40945) | 1 | 109 | 187 | – | – | inactive
CG17784 (GeneID 42909) | 1 | 263 | 152 | – | – | inactive
CG11279 (GeneID 39486) | 1 | 78.9 | 128 | – | – | inactive
CG9101 (GeneID 32452) | 1 | 92.7 | 96 | – | – | inactive
SmD3 (GeneID 36306) | 1 | 97.6 | 89.1 | – | – | inactive
Mos (GeneID 36404) | 1 | 138 | 191 | – | – | inactive
spn-A (GeneID 43577) | 1 | 191 | 144 | – | – | inactive
sli (GeneID 36746) | 1 | 126 | 134 | – | – | inactive
sli (GeneID 36746) | 2 | 106 | 181 | – | – | inactive
